Literature values, collected in patent US8586551B2, “18-membered macrocycles and analogs thereof” (Optimer Pharmaceuticals, Inc., priority 2005, dated 2013).
Some of these results come from one statement about several compounds together.

Tested on: C. difficile
Conditions: after treatment of CDAD; cited from earlier work

SMILES: CN[C@H](CC(C)C)C(=O)N[C@H]1C(=O)N[C@@H](CC(N)=O)C(=O)N[C@H]2C(=O)N[C@H]3C(=O)N[C@H](C(=O)N[C@H](C(=O)O)c4cc(O)cc(O)c4-c4cc3ccc4O)[C@H](O)c3ccc(c(Cl)c3)Oc3cc2cc(c3O[C@@H]2O[C@H](CO)[C@@H](O)[C@H](O)[C@H]2O[C@H]2C[C@](C)(N)[C@H](O)[C@H](C)O2)Oc2ccc(cc2Cl)[C@H]1O [Vancomycin]
- Clinical recurrence: up to 20 % of cases
